# These are yes or no findings as the source states them, for the method shown. In cells and extracts the contact can be indirect. Some entries that bind do so weakly or less than the wild type.
# The chains behind the UniProt entries cited, without tags or fusion partners. Where a name states a change or a piece, a line headed by the entry shows the natural chain unless it says otherwise.
# UniProt O18333: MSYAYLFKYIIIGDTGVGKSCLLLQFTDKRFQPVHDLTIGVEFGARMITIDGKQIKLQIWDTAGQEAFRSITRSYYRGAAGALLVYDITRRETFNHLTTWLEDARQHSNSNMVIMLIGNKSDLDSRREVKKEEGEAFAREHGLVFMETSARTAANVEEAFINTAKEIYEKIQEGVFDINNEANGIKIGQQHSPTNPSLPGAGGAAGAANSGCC
# B1: BicaudalD (protein, UniProt P16568 1-782)
# chain: MSSASNNGPSADQSVQDLQMEVERLTRELDQVSSASAQSAQYGLSLLEEKSALQQKCEELETLYDNTRHELDITQEALTKFQTSQKVTNKTGIEQEDALLNESAARETSLNLQIFDLENELKQLRHELERVRNERDRMLQENSDFGRDKSDSEADRLRLKSELKDLKFRETRMLSEYSELEEENISLQKQVSSLRSSQVEFEGAKHEIRRLTEEVELLNQQVDELANLKKIAEKQMEEALETLQGEREAKYALKKELDGHLNRESMYHISNLAYSIRSNMEDNASNNSDGEEENLALKRLEADLSTELKSPDGTKCDLFSEIHLNELKKLEKQLESMESEKTHLTANLREAQTSLDKSQNELQNFMSRLALLAAHVDALVQLKKQIDVKEQGKEGGQKKDELEQQLRALISQYANWFTLSAKEIDGLKTDIAELQKGLNYTDATTTLRNEVTNLKNKLLATEQKSLDLQSDVQTLTHISQNAGQSLGSARSTLVALSDDLAQLYHLVCTVNGETPTRVLLDHKTDDMSFENDSLTAIQSQFKSDVFIAKPQIVEDLQGLADSVEIKKYVDTVSDQIKYLKTAVEHTIDMNKHKIRSEGGDALEKVNTEEMEELQEQIVKLKSLLSVKREQIGTLRNVLKSNKQTAEVALTNLKSKYENEKIIVSDTMSKLRNELRLLKEDAATFSSLRAMFAARCEEYVTQVDDLNRQLEAAEEEKKTLNQLLRLAVQQKLALTQRLEEMEMDREMRHVRRPMPAQRGTSGKSSFSTRPSSRNPASSNANPF
# Target: GST-Rab2(Q65L), GTP-locked Drosophila Rab2 (Drosophila melanogaster) (UniProt O18333)
# Experiment: pull-down; small-scale affinity chromatography with GDP- and GTP-locked GST-Rabs; lysates of S2 cells (endogenous protein or transfected tagged protein); immunoblot; only the target purified
binder,measurement,value
B1,binding,binds

# — paper PMC4232348
